Counter-ions that a name gives are not always drawn.
Test system: scopolamine-treated mice
Experiment: Scopolamine-induced memory impairment, passive avoidance test
Assay type: in vivo
Conditions: scopolamine (1 mg/kg) alone

CN1[C@@H]2C[C@@H](OC(=O)[C@H](CO)c3ccccc3)C[C@H]1[C@@H]1O[C@@H]12 [scopolamine, scopolamine hydrobromide]
retention trial latency: 39.9 ± 7.8 s

Reference: paper PMC4501038 (RSC advances, 2015)
